Test results as given in PMC5626712.

Chains of the proteins cited; added tags and fusions are not shown. Lines headed by an entry give the natural chain unless they say otherwise; changes in a name come on top.
UniProt O35235: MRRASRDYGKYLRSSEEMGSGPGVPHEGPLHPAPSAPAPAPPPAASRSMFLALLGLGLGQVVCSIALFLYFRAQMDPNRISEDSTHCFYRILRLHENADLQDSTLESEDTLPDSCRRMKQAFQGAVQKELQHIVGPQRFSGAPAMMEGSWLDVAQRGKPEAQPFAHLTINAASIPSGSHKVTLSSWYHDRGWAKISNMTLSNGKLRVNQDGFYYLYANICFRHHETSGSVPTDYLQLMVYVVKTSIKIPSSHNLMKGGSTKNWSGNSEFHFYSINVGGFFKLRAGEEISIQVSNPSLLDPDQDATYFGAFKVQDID
UniProt P01375: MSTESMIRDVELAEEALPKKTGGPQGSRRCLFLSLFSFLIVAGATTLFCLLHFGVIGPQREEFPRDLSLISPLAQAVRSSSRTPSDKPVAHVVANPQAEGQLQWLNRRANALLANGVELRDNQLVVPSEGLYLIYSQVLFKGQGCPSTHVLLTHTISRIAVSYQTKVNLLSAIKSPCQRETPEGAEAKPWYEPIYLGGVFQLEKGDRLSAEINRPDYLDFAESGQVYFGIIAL

Legend:
[1] = biological target: T1, C-terminal MYC/DDK Fmod (fibromodulin) (UniProt Q06828); assay: ELISA; solid-phase binding assay: bait bound to nickel-coated or anti-FLAG M2-coated plates (2 h, 37 °C), blocked with 0.1–1% BSA/TBS, increasing concentrations of prey at 4 °C overnight, prey detected with primary antibody and HRP secondary, read at 450 nm; both purified
T1 sequence: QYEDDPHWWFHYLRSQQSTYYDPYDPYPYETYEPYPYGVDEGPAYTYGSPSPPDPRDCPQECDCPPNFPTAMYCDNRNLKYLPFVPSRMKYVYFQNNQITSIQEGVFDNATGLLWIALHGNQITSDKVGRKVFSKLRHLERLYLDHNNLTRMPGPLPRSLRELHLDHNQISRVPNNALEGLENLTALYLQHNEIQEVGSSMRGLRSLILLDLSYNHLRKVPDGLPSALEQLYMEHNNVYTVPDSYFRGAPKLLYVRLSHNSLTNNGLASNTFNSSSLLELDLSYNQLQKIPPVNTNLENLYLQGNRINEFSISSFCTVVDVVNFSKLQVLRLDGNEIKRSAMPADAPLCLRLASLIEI

[2] = biological target: T2, His-tagged PG-Bgn (biglycan proteoglycan form, with GAG chains) (UniProt P21810); assay: as above
T2 sequence (chain, GAG chains (GAG-chain supplemented form of Bgn)): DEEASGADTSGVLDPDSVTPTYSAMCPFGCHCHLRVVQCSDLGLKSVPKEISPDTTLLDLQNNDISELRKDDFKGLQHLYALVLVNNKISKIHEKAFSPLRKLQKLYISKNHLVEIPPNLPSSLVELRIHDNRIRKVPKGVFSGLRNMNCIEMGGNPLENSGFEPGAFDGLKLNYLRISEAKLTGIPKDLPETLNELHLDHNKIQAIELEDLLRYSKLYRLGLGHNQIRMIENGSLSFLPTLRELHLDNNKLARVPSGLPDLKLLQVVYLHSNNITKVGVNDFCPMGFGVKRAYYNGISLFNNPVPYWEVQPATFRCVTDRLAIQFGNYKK

Bgn core protein [3] = biological target: T3, Bgn core protein (UniProt P21810); assay: pull-down; called coIP by the paper: constant His-tagged bait incubated with increasing concentrations of prey for 5 h at RT, bound to nickel-charged His-Bind resin at 4 °C overnight, washed, eluted by boiling, prey detected by western blot; both purified
T3 sequence: T2 sequence (chain, GAG chains (GAG-chain supplemented form of Bgn))

Bgn core protein [4] = biological target: T3, Bgn core protein; assay: ELISA; solid-phase binding assay: bait bound to nickel-coated or anti-FLAG M2-coated plates (2 h, 37 °C), blocked with 0.1–1% BSA/TBS, increasing concentrations of prey at 4 °C overnight, prey detected with primary antibody and HRP secondary, read at 450 nm; both purified

Measured: binding

Receptor activator of NF-κB ligand (RANKL) (from UniProt O35235)
binds: [1] | [2]

Tumor necrosis factor alpha (TNFα), used as prey (added in increasing concentrations) (from UniProt P01375) (ligand)
binds: all assays above

No constants are given. Whether binding was seen depends on the method and setting. Binding calls can cover weak binding; strength is not graded here. For part of these data: Sequences can lack the tags named with a protein. For part of these data: In cells and extracts the contact can be indirect.
